No constants are given. Whether binding was seen depends on the method and setting. Binding seen in cells or lysates may run through a third protein. Some binding calls cover weakened binding; strength is not graded here.
Biological target: c-Myc (human (in HCT116 and P53R cells)) (UniProt P01106)
Assay: co-IP; Dynabeads protein G loaded with 3 μg antibody of the target protein or IgG; cell lysate supernatant incubated with beads overnight at 4 °C; washed three times with lysis buffer; bound proteins and inputs detected by immunoblotting; HCT116 and P53R cells (Fig. 6G)

Sequences of proteins named here, by UniProt entry; tags and fusion partners are left off. A change or cut given only in a name is not applied to a line headed by its entry.
UniProt P01106: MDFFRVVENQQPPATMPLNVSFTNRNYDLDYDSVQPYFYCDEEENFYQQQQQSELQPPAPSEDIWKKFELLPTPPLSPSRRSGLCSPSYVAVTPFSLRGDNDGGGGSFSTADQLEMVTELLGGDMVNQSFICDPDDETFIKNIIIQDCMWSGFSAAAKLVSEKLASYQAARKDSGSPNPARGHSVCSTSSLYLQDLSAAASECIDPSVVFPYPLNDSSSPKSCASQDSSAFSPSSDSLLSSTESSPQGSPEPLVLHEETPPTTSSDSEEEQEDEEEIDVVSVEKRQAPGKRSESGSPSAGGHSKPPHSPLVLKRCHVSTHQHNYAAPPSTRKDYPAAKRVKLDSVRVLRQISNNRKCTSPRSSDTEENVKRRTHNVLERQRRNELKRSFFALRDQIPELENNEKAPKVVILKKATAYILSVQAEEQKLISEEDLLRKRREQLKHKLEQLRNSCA

B1: Ubiquitin domain containing 1 (UBTD1) (protein, UniProt Q9HAC8 1-227)
chain: MGNCVGRQRRERPAAPGHPRKRAGRNEPLKKERLKWKSDYPMTDGQLRSKRDEFWDTAPAFEGRKEIWDALKAAAYAAEANDHELAQAILDGASITLPHGTLCECYDELGNRYQLPIYCLSPPVNLLLEHTEEESLEPPEPPPSVRREFPLKVRLSTGKDVRLSASLPDTVGQLKRQLHAQEGIEPSWQRWFFSGKLLTDRTRLQETKIQKDFVIQVIINQPPPPQD
  binding: binds
